The results in this text go back to article PMC8645233.

No constants are given. Whether binding was seen depends on the method and setting. Some results given as binding are weak or reduced against the parent protein; the word gives no strength.

The assay deals with T1, GTBP-1 (C. elegans) (UniProt Q21351).
T1 sequence: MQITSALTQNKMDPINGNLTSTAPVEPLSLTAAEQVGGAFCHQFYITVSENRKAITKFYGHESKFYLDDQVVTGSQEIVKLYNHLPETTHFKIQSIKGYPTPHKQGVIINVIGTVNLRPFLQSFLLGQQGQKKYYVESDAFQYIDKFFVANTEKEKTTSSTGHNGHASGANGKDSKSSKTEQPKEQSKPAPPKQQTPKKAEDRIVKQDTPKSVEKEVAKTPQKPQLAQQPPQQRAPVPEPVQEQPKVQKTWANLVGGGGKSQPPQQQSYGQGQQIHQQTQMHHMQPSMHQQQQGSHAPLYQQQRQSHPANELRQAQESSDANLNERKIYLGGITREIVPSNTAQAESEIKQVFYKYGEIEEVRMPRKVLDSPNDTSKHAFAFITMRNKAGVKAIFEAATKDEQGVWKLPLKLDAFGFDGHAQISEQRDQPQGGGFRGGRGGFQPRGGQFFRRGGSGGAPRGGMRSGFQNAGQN
The assay can be described thus: two-hybrid; PJ69-4a yeast strain; single copy GAL4 activation and GAL4 DNA-binding domain vectors; growth for 3 days on SC -Leu -Trp -His plates with 3 mM 3AT (HIS-3 reporter) and colony colour (ADE-2 reporter).

B1: Prion-like (glutamine/asparagine-rich) domain bearing protein (PQN-59) (protein, UniProt O61708 1-712)
chain: MGIKGDKKATSDQARLARLTLEGNSGNEEDIQFMIKTIIETTGCTQAQAEIALLDTDNNLYGAIDHILDAGDKLDSWTEQKGAKKEKKKPEEGSYNNRGFVARGRGGGTGFVDRGGRGRSNGAPRESRDNNRDNRDNKEGAAPRSTRGGFEKPYVGRGGRGGARGGYSRAVAPSSALEPDAFTADLDENQTKVDTTVTEVQPPVEESVTATVPTSSAPAPISFAAVAAAAHRKEALRKHQAQNPQPAAPPRRSLSPQPPLPSVAPVKEEPAAAPVFFEPETSHQPEKEDGFFQNESSVLAEEQTPNVSTHHDENVQSTPEPNQAWTTQLKTDLGIGLSEAPGLGLSPIPSAAPVQIIPDPGVEFVGTTAPTNIHDYSFGFVEAAPSPQLPSTESSAASISNASENIFNSSRIMPKQVEPERTSIPNGDYNLKSTSPPLSYGQSNRGLSYDTSSASYQPTDRMAPNKFNNSGPLPTQQSAQQHQPQQQQQQAPQQPVQQQQQTPPAQSQPTGHPQQHPHMMFTQQLPYAPYMNNYMNMYNPMPGVRDEQYTAALMQYGMGVDLTSLLPTAPLSQAASAQQVQSGQQRETHGLMDFNKFGSQSSRDQQPQQASNVGPPPGFQATNYMQQPNLSSLFMQQYSPAPHQFTPFMNMMPNVGSSAGGRQLYGQDDERKSYDKMSGSKPAAQQNQHSQYQHNGGNLGKYGMNKPYNWSN
Take B1: the binding result is on record as “binds”.
